Data reported in patent US20050165218A1, “Crystal structure of the ligand binding domain of the retinoic acid-related orphan receptor alpha (ror-alpha)” (priority 2002, published 2005).
For at least one compound, name, drawing or mass did not settle the structure.

Molecular target: T1, RORα (Homo sapiens, UniProt P35398)
T1 sequence (P35398 1-556 isoform P35398-1): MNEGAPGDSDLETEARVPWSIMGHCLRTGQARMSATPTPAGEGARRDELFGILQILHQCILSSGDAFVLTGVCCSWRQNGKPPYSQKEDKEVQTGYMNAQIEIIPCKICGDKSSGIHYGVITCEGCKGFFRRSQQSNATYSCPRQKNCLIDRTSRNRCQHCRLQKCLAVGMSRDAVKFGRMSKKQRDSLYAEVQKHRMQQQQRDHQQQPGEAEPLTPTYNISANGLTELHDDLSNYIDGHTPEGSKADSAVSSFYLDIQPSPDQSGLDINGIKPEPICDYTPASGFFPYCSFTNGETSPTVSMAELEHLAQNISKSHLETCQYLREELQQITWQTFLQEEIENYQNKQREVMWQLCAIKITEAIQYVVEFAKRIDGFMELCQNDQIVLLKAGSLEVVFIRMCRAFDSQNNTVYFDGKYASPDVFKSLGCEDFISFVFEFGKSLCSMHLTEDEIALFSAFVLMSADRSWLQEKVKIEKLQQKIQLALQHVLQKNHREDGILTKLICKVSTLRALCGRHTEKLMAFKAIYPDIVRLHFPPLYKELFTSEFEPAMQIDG
Test: RORE-tk-luc luciferase reporter assay in U2OS cells in essentially sterol free medium, fluvastatin treatment
Type: cell-based
Conditions: cells cultivated in medium essentially sterol free
Protocol: Mammalian cells receive cholesterol by uptake from lipoproteins (LDL-cholesterol) and are able to synthesize cholesterol through the mevalonate pathway. In a situation where cells are cultured under conditions essentially sterol free, a key transcription factor, SREBP will be proteolytically cleaved and this releases a transcription factor to the nucleus. This transcription factor is able to transcriptionally activate HMG-CoA reductase, which is a critical step in the cholesterol biosynthesis through the mevalonate pathway. Statins, which are know drugs for hypercholesterol state are specific inhibitors of the HMG-CoA reductase. When cells are cultivated in sterol free medium, their HMG-CoA reductase is strongly activated. In this experiment cells, cultivated in medium essentially sterol free, are treated with fluvastatin. […] U2OS cells are transfected with expression vector for RORα (ROR) together with a luciferase reporter gene bearing a consensus response element for RORα (RORE-tk-luc). Luciferase activity is assayed in cells from 6 well plates and related to the activity in cells transfected with or without treatment with fluvastatin. The results are normalized to the protein content.

For `CC(C)n1c(/C=C/C(O)CC(O)CC(=O)O)c(-c2ccc(F)cc2)c2ccccc21` (stereo not shown) [Fluvastatin], the “RORα activity after fluvastatin treatment (in words)” value was “clear decrease in RORα activity”.
